US7956084B2, “Phenyl thiophene carboxamide compounds as inhibitors of the enzyme IKK-2” (AstraZeneca AB, priority 2001, dated 2011)
Some of these results come from one statement about several compounds together.

Each compound was assayed against T1, IKK-2 (Homo sapiens, UniProt O14920) (assay: IKK-2 Filter Kinase Assay). Conditions: 1 μM ATP, 33P ATP, 1-53 GST-IκB substrate, 21° C. for 80 minutes.
T1 sequence (O14920 1-756): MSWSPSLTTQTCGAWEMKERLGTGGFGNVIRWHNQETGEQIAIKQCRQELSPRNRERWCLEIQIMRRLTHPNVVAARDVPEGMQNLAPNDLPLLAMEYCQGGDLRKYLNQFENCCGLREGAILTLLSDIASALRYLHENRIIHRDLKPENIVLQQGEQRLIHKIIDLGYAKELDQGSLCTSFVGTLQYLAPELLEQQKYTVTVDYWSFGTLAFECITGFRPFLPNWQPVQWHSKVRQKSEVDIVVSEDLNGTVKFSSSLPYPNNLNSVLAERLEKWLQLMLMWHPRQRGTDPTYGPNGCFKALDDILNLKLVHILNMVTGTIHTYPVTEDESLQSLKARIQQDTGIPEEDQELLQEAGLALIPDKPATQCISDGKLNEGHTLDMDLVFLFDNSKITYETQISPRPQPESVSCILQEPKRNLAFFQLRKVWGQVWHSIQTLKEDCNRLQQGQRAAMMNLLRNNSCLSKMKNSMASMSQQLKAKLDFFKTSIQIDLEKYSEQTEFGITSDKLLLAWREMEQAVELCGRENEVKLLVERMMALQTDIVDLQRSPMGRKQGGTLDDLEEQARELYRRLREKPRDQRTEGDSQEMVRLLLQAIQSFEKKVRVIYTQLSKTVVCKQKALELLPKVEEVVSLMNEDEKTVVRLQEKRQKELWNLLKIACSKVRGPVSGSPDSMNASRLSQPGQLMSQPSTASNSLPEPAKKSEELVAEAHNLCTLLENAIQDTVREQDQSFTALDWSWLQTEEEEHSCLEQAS
Format: biochemical

IC50, < 10 µM:
COc1ccc(-c2cc(C(N)=O)c(NC(N)=O)s2)c(OC2CCN(C(C)C)C2)c1 (stereo not drawn) [Example 144, 2-[(Aminocarbonyl)amino]-5-{2-[(1-isopropylpyrrolidin-3-yl)oxy]-4-methoxyphenyl}-3-thiophenecarboxamide]
CC(C)N1CCC(Oc2ccc(F)cc2-c2cc(C(N)=O)c(NC(N)=O)s2)C1 (stereo not drawn) [Example 145, 2-[(Aminocarbonyl)amino]-5-{5-fluoro-2-[(1-isopropylpyrrolidin-3-yl)oxy]phenyl}-3-thiophenecarboxamide]
CC(C)N1CCC(Oc2c(CN3CCOCC3)cccc2-c2cc(C(N)=O)c(NC(N)=O)s2)C1 (stereo not drawn) [Example 146, 2-[(Aminocarbonyl)amino]-5-{2-[(1-isopropylpyrrolidin-3-yl)oxy]-3-(morpholin-4-ylmethyl)phenyl}-3-thiophenecarboxamide]
NC(=O)Nc1sc(-c2ccccc2OC2CCN(CC3CC3)C2)cc1C(N)=O (stereo not drawn) [Example 147]
NC(=O)Nc1sc(-c2ccccc2OC2CCN(C3CC3)C2)cc1C(N)=O (stereo not drawn) [Example 148, 2-[(Aminocarbonyl)amino]-S-{2-[(1-cyclopropylpyrrolidin-3-yl)oxy]phenyl}-3-thiophenecarboxamide]
NC(=O)Nc1sc(-c2ccccc2OCCN2CCC(F)CC2)cc1C(N)=O [Example 149]
CN1CCC(Oc2ccccc2-c2cc(C(N)=O)c(NC(N)=O)s2)CC1 [Example 150, 2-[(Aminocarbonyl)amino]-5-{2-[(1-methylpiperidin-4-yl)oxy]phenyl}-3-thiophenecarboxamide]
CN1CCC(Oc2ccccc2-c2cc(C(N)=O)c(NC(N)=O)s2)C1 (stereo not drawn) [Example 151, 2-[(Aminocarbonyl)amino]-5-{2-[(1-methylpyrrolidin-3-yl)oxy]phenyl}-3-thiophenecarboxamide]
NC(=O)Nc1sc(-c2ccc(C(=O)CN3CCOCC3)cc2)cc1C(N)=O [Example 152, 2-[(Aminocarbonyl)amino]-5-[4-(2-{morpholin-4-yl}acetyl)phenyl]3-thiophenecarboxamide]
NC(=O)Nc1sc(-c2ccccc2OCCN2CCC(O)CC2)cc1C(N)=O [Example 153, 2-[(Aminocarbonyl)amino]-5-[2-{2-(4-hydroxy-1-piperidinyl)ethoxy}phenyl]-3-thiophenecarboxamide]
CC1(C)CCCC(C)(C)N1CCOc1ccccc1-c1cc(C(N)=O)c(NC(N)=O)s1 [Example 154, 2-[(Aminocarbonyl)amino]-5-[2-(2-(2,2,6,6-tetramethylpieridin-1-yl)ethoxy)phenyl]-3-thiophenecarboxamide]
NC(=O)Nc1sc(-c2ccccc2OCCN2CC=CC2)cc1C(N)=O [Example 155, 2-[(Aminocarbonyl)amino]-5-{2-[2-(3-pyrrolin-1-yl)ethoxy]phenyl}thiophene-3-carboxamide]
COC[C@@H]1CCCN1Cc1ccc(-c2cc(C(N)=O)c(NC(N)=O)s2)cc1 [Example 157, (2S)-2-[(Aminocarbonyl)amino]-5-[4-(2-methoxymethyl-pyrrolidin-1-ylmethyl)phenyl]thiophene-3-carboxamide]
NC(=O)Nc1sc(-c2ccc(CN3CCC(C(N)=O)CC3)cc2)cc1C(N)=O [Example 158]
NC(=O)Nc1sc(-c2ccc(CN3CCCC(CO)C3)cc2)cc1C(N)=O (stereo not drawn) [Example 159, 2-[(Aminocarbonyl)amino]-5-[4-(3-hydroxymethylpiperidin-1-ylmethyl)phenyl]thiophene-3-carboxamide]
NC(=O)Nc1sc(-c2ccccc2N2CCC(N3CCOCC3)C2)cc1C(N)=O (stereo not drawn) [Example 161, 2-[(Aminocarbonyl)amino]-5-[2-(3-{morpholin-4-yl}pyrrolidin-1-yl)phenyl]thiophene-3-carboxamide]
COCCN1CCN(c2ccccc2-c2cc(C(N)=O)c(NC(N)=O)s2)CC1 [Example 162, 2-[(Aminocarbonyl)amino]-5-{2-[4-(2-methoxyethyl)piperazin-1-yl]phenyl}thiophene-3-carboxamide]
NC(=O)Nc1sc(-c2ccccc2N2C[C@@H]3C[C@H]2CN3)cc1C(N)=O [Example 163, 2-[(Aminocarbonyl)amino]-5-{2-[(1S,4S)-2,5-diazabicyclobicyclo[2,2,1]hept-2-yl]phenyl}thiophene-3-carboxamide]
